Test results published in publication PMC7464583.
No constants are given. Whether binding was seen depends on the method and setting. Binding seen in cells or lysates may run through a third protein. Some binding calls cover weakened binding; strength is not graded here.

Chains of the proteins cited; added tags and fusions are not shown.
UniProt Q61221: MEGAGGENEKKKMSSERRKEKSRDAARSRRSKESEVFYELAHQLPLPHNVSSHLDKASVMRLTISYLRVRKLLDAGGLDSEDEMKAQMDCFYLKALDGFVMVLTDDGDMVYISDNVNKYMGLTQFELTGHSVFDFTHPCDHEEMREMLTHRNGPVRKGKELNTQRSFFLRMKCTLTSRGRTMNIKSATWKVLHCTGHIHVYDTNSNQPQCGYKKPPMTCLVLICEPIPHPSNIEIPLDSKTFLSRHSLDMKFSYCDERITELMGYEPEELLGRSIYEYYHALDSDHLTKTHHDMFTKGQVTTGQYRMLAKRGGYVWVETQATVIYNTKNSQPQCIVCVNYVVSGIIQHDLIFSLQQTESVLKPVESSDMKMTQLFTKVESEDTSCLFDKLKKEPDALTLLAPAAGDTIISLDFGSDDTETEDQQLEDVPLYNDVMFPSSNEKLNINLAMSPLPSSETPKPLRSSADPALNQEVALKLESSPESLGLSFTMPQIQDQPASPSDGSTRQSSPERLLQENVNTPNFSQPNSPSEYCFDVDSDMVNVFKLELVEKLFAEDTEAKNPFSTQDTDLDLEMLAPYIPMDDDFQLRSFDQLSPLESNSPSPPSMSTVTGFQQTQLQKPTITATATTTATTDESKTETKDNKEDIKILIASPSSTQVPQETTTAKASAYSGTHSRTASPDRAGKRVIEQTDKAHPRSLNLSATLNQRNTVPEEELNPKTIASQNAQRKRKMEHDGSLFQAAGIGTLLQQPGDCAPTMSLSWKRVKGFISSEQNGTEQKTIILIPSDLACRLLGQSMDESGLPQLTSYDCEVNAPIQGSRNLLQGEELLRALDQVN
UniProt Q91Y86: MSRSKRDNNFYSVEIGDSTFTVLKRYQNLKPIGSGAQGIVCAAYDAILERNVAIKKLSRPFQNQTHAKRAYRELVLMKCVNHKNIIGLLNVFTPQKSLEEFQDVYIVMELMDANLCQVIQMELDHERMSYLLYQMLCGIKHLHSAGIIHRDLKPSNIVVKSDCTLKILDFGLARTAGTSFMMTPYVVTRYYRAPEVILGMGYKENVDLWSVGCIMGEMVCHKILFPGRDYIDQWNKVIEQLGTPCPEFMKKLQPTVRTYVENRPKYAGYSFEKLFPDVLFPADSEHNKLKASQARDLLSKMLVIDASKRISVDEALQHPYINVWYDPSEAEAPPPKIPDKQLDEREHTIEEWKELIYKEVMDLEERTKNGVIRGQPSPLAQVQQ

T1: endogenous WWOX (mouse (endogenous in BALB/c mouse organs)) (UniProt Q91WL8)
T1 sequence: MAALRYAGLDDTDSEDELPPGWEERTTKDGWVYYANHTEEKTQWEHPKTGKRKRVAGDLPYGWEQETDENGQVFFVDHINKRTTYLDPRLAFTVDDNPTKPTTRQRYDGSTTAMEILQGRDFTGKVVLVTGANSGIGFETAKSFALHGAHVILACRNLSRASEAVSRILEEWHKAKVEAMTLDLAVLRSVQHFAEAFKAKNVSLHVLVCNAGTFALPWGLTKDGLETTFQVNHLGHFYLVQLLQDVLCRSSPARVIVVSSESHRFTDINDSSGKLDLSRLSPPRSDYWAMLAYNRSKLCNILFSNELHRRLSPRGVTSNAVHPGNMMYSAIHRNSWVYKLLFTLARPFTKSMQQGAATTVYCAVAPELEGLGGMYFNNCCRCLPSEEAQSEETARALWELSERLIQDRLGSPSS

T2: Zinc finger-like protein that regulates apoptosis (Zfra), full length, expressed from Zfra-pIRES2-Wwox-DsRed-Express (human/murine)
T2 sequence: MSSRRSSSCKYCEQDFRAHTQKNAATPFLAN


How the values were obtained:
[1] = target: T1, endogenous WWOX (mouse (endogenous in BALB/c mouse organs)); assay: co-IP; spleen lysates (500 μg) of BALB/c mice given PBS, Zfra4-10 and/or WWOX7-21 peptide and inoculated with 4T1 cells; specific antibody (3 μg) and protein G agarose beads, 6 to 18 h, washed with PBS; Western blot
[2] = target: HIF-1α (mouse (endogenous in BALB/c mouse spleen)) (UniProt Q61221); assay: as above
[3] = target: T2, Zinc finger-like protein that regulates apoptosis (Zfra), full length, expressed from Zfra-pIRES2-Wwox-DsRed-Express (human/murine); assay: co-IP; Zfra and WWOX-DsRed from a bicistronic pIRES-based vector transiently overexpressed in COS7 cells; precipitated with Zfra antiserum; reducing SDS-PAGE, complex at ~76 kDa

Row | Molecule | binding [1] | binding [2] | binding [3]
1 | Foxp3 (protein, UniProt Q99JB6 1-417) MPNPRPAKPMAPSLALGPSPGVLPSWKTAPKGSELLGTRGSGGPFQGRDLRSGAHTSSSLNPLPPSQLQLPTVPLVMVAPSGARLGPSPHLQALLQDRPHFMHQLSTVDAHAQTPVLQVRPLDNPAMISLPPPSAATGVFSLKARPGLPPGINVASLEWVSREPALLCTFPRSGTPRKDSNLLAAPQGSYPLLANGVCKWPGCEKVFEEPEEFLKHCQADHLLDEKGKAQCLLQREVVQSLEQQLELEKEKLGAMQAHLAGKMALAKAPSVASMDKSSCCIVATSTQGSVLPAWSAPREAPDGGLFAVRRHLWGSHGNSSFPEFFHNMDYFKYHNMRPPFTYATLIRWAILEAPERQRTLNEIYHWFTRMFAYFRNHPATWKNAIRHNLSLHKCFVRVESEKGAVWTVDEFEFRKKR | binds | – | –
2 | CD133 (protein, UniProt O54990 20-867) EGQPAFHNTPGAMNYELPTTKYETQDTFNAGIVGPLYKMVHIFLSVVQPNDFPLDLIKKLIQNKKFDISVDSKEPEIIVLALKIALYEIGVLICAILGLLFIILMPLVGCFFCMCRCCNKCGGEMHQRQKQNAPCRRKCLGLSLLVICLLMSLGIIYGFVANQQTRTRIKGTQKLAKSNFRDFQTLLTETPKQIDYVVEQYTNTKNKAFSDLDGIGSVLGGRIKDQLKPKVTPVLEEIKAMATAIKQTKDALQNMSSSLKSLQDAATQLNTNLSSVRNSIENSLSSSDCTSDPASKICDSIRPSLSSLGSSLNSSQLPSVDRELNTVTEVDKTDLESLVKRGYTTIDEIPNTIQNQTVDVIKDVKNTLDSISSNIKDMSQSIPIEDMLLQVSHYLNNSNRYLNQELPKLEEYDSYWWLGGLIVCFLLTLIVTFFFLGLLCGVFGYDKHATPTRRGCVSNTGGIFLMAGVGFGFLFCWILMILVVLTFVVGANVEKLLCEPYENKKLLQVLDTPYLLKEQWQFYLSGMLFNNPDINMTFEQVYRDCKRGRGIYAAFQLENVVNVSDHFNIDQISENINTELENLNVNIDSIELLDNTGRKSLEDFAHSGIDTIDYSTYLKETEKSPTEVNLLTFASTLEAKANQLPEGKPKQAFLLDVQNIRAIHQHLLPPVQQSLNTLRQSVWTLQQTSNKLPEKVKKILASLDSVQHFLTNNVSLIVIGETKKFGKTILGYFEHYLHWVFYAITEKMTSCKPMATAMDSAVNGILCGYVADPLNLFWFGIGKATVLLLPAVIIAIKLAKYYRRMDSEDVYDDVETVPMKNLEIGSNGYHKDHLYGVHNPVMTSPSRY | binds | – | –
3 | C1qBP (protein, UniProt O35658 71-278) LHTEGDKAFVEFLTDEIKEEKKIQKHKSLPKMSGDWELEVNGTEAKLLRKVAGEKITVTFNINNSIPPTFDGEEEPSQGQKAEEQEPERTSTPNFVVEVTKTDGKKTLVLDCHYPEDEIGHEDEAESDIFSIKEVSFQATGDSEWRDTNYTLNTDSLDWALYDHLMDFLADRGVDNTFADELVELSTALEHQEYITFLEDLKSFVKNQ | binds | binds | –

Further lines, results first:

Row | binding [1] | binding [2] | binding [3] | Molecule
4 | binds | – | – | JNK1 (from UniProt Q91Y86 1-384)
5 | – | – | binds | WWOX-DsRed (murine Wwox cloned in pIRES2-DsRed-Express) (protein, UniProt Q91WL8 1-414) MAALRYAGLDDTDSEDELPPGWEERTTKDGWVYYANHTEEKTQWEHPKTGKRKRVAGDLPYGWEQETDENGQVFFVDHINKRTTYLDPRLAFTVDDNPTKPTTRQRYDGSTTAMEILQGRDFTGKVVLVTGANSGIGFETAKSFALHGAHVILACRNLSRASEAVSRILEEWHKAKVEAMTLDLAVLRSVQHFAEAFKAKNVSLHVLVCNAGTFALPWGLTKDGLETTFQVNHLGHFYLVQLLQDVLCRSSPARVIVVSSESHRFTDINDSSGKLDLSRLSPPRSDYWAMLAYNRSKLCNILFSNELHRRLSPRGVTSNAVHPGNMMYSAIHRNSWVYKLLFTLARPFTKSMQQGAATTVYCAVAPELEGLGGMYFNNCCRCLPSEEAQSEETARALWELSERLIQDRLGSPSS
6 | binds | binds weakly | – | p21 (protein, UniProt P39689 1-159) MSNPGDVRPVPHRSKVCRCLFGPVDSEQLRRDCDALMAGCLQEARERWNFDFVTETPLEGNFVWERVRSLGLPKVYLSPGSRSRDDLGGDKRPSTSSALLQGPAPEDHVALSLSCTLVSERPEDSPGGPGTSQGRKRRQTSLTDFYHSKRRLVFCKRKP
